Reference: US20050065340A1, “Metabotropic glutamate receptor-5 modulators” (priority 2001, published 2005)
Structures can show the parent of a compound that is named as a salt. Some of these results come from one statement about several compounds together.

Protein sequences, listed by entry. Tags and fused reporters are not part of them. Residues count along the entry.
UniProt P41594, 21-1180 isoform P41594-2 limits assumed: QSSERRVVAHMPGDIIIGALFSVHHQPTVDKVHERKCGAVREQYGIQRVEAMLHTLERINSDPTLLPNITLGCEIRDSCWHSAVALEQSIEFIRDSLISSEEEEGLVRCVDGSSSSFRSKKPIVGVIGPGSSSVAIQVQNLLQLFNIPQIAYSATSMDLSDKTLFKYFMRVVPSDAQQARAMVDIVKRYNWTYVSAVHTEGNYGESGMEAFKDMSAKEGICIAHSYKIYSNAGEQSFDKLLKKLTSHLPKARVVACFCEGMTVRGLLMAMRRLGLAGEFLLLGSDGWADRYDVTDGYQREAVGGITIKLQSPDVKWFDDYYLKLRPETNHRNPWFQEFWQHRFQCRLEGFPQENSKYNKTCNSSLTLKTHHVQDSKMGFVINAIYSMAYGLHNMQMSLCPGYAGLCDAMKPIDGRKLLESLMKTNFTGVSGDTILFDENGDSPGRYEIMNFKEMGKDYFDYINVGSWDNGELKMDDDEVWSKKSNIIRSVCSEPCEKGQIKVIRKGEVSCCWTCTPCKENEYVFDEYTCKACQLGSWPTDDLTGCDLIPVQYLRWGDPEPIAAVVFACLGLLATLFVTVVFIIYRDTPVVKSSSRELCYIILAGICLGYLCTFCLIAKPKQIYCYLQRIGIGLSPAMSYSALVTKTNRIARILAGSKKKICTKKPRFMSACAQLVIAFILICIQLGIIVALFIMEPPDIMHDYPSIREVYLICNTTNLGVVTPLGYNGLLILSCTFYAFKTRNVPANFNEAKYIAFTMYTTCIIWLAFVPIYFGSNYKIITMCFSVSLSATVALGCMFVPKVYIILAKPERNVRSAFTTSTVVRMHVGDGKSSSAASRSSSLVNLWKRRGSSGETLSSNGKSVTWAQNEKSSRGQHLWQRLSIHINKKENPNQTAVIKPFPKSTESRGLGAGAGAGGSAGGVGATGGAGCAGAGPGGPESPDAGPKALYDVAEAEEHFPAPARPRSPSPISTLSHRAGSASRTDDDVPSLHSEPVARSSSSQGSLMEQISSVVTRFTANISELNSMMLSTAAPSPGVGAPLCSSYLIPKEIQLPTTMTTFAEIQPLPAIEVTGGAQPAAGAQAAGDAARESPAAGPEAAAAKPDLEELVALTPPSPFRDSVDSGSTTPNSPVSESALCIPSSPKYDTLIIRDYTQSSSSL

Assays:
hmGluR5a receptor = molecular target: T1, hmGluR5a receptor (Homo sapiens, UniProt P41594); assay: Calcium flux assay (fura-2, glutamate-evoked [Ca2+]i); format: cell-based; details: hmGluR5a/L38-20 cells (mouse fibroblast Ltk-), 10 μM glutamate (EC80); read-out: mGluR5 inhibitory activity, values in the calcium flux assay
T1 construct: expressed in transfected cells; host or cells: mouse fibroblast Ltk- cells (hmGluR5a/L38-20 cell line; LM5a cell line)

hmGluR5 = molecular target: T2, hmGluR5 (Homo sapiens, UniProt P41594); assay: Phosphatidylinositol hydrolysis (PI) assay; format: cell-based; details: hmGluR5/L38-20 cells (mouse fibroblast Ltk), 10 μM glutamate; read-out: mGluR5 inhibitory activity, values in the PI assay
T2 construct: expressed in transfected cells; host or cells: mouse fibroblast Ltk- cells (hmGluR5a/L38-20 cell line; LM5a cell line)

Compound: CCCC(C#N)c1ccc(-c2nc3ccccc3o2)cc1OC (centres unmarked) [Example 25, 2-[4-(1,3-Benzoxazol-2-yl)-2-methoxyphenyl]pentanenitrile]
- IC50 (hmGluR5a receptor): < 5 µM
- IC50 (hmGluR5): < 100 µM

Compound: COc1cc(-c2nc3ccccc3o2)ccc1O [Example 53, 4-(1,3-Benzoxazol-2-yl)-2-methoxyphenol]
- IC50 (hmGluR5a receptor): < 5 µM
- IC50 (hmGluR5): < 100 µM

Compound: COc1cc(-c2nc3ccccc3o2)ccc1-c1ccc(N)cn1 [Example 78, 6-[4-(1,3-Benzoxazol-2-yl)-2-methoxyphenyl]pyridin-3-amine]
- IC50 (hmGluR5a receptor): < 5 µM
- IC50 (hmGluR5): < 100 µM

Compound: Cc1cc(-c2nc3ccccc3o2)ccc1CC#N [Example 3, [4-(1,3-Benzoxazol-2-yl)-2-methylphenyl]acetonitrile]
- IC50 (hmGluR5a receptor): < 5 µM
- IC50 (hmGluR5): < 100 µM

Compound: COc1cc(-c2nc3ccccc3o2)ccc1Cn1cnc(Br)c1 [Example 38, 2-{4-[(4-Bromo-1H-imidazol-1-yl)methyl]-3-methoxyphenyl}-1,3-benzoxazole]
- IC50 (hmGluR5a receptor): < 5 µM
- IC50 (hmGluR5): < 100 µM

Compound: N#CCc1ccc(-c2nc3ccccc3o2)cc1C(F)(F)F [Example 5, [4-(1,3-Benzoxazol-2-yl)-2-(trifluoromethyl)phenyl]acetonitrile]
- IC50 (hmGluR5a receptor): < 5 µM
- IC50 (hmGluR5): < 100 µM

Compound: COc1cc(-c2nc3ccccc3o2)ccc1Cn1nccn1 [Example 34, 2-[3-Methoxy-4-(2H-1,2,3-triazol-2-ylmethyl)phenyl]1,3-benzoxazole]
- IC50 (hmGluR5a receptor): < 5 µM
- IC50 (hmGluR5): < 100 µM

Compound: COc1cc(-c2nc3ccccc3o2)ccc1C1(C#N)CC1 [Example 28, 1-[4-(1,3-Benzoxazol-2-yl)-2-methoxyphenyl]cyclopropanecarbonitrile]
- IC50 (hmGluR5a receptor): < 5 µM
- IC50 (hmGluR5): < 100 µM

Compound: COc1cc(-c2nc3ccccc3o2)ccc1CC#N [Example 22, 2-[4-(1,3-Benzoxazol-2-yl)-2-methoxyphenyl]acetonitrile]
- IC50 (hmGluR5a receptor): < 5 µM
- IC50 (hmGluR5): < 100 µM

Compound: N#CCc1ccc(-c2nc3ccccc3o2)cc1Br [Example 1, [4-(1,3-Benzoxazol-2-yl)-2-bromnophenyl]acetonitrile]
- IC50 (hmGluR5a receptor): < 5 µM
- IC50 (hmGluR5): < 100 µM

Compound: Clc1cc(-c2nc3ccccc3o2)ccc1-c1cccnc1 [Example 57, 2-(3-Chloro-4-pyridin-3-ylphenyl)-1,3-benzoxazole]
- IC50 (hmGluR5a receptor): < 5 µM
- IC50 (hmGluR5): < 100 µM

Compound: COCOc1cc(-c2nc3ccccc3o2)ccc1CC#N [Example 15, [4-(1,3-Benzoxazol-2-yl)-2-(methoxymethoxy)phenyl]acetonitrile]
- IC50 (hmGluR5a receptor): < 5 µM
- IC50 (hmGluR5): < 100 µM

Compound: COc1cc(-c2nc3ccccc3o2)ccc1CN1CCCCC1 [Example 45, 2-[3-Methoxy-4-(piperidin-1-ylmethyl)phenyl]-1,3-benzoxazole]
- IC50 (hmGluR5a receptor): < 5 µM
- IC50 (hmGluR5): < 100 µM

Compound: N#CCc1ccc(-c2nc3ccccc3o2)cc1O [Example 12, [4-(1,3-Benzoxazol-2-yl)-2-hydroxyphenyl]acetonitrile]
- IC50 (hmGluR5a receptor): < 5 µM
- IC50 (hmGluR5): < 100 µM

Compound: N#CCc1ccc(-c2nc3cc(Cl)ccc3o2)cc1 [Example 32, [4-(5-Chloro-1,3-benzoxazol-2-yl)phenyl]acetonitrile]
- IC50 (hmGluR5a receptor): < 5 µM
- IC50 (hmGluR5): < 100 µM

Compound: COc1ccc(-c2cc(-c3nc4ccccc4o3)ccc2CC#N)c(OC)c1 [Example 2, [5-(1,3-Benzoxazol-2-yl)-2′,4′-dimethoxy-1,1′-biphenyl-2-yl]acetonitrile]
- IC50 (hmGluR5a receptor): < 5 µM
- IC50 (hmGluR5): < 100 µM

Compound: COc1cc(-c2nc3ccccc3o2)ccc1-c1cccc(Br)n1 [Example 67, 2-[4-(6-Bromopyridin-2-yl)-3-methoxyphenyl]-1,3-benzoxazole]
- IC50 (hmGluR5a receptor): < 5 µM
- IC50 (hmGluR5): < 100 µM

Compound: Cc1ccc2oc(-c3ccc(CC#N)c(F)c3)nc2c1 [Example 10, [2-Fluoro-4-(5-methyl-1,3-benzoxazol-2-yl)phenyl]acetonitrile]
- IC50 (hmGluR5a receptor): < 5 µM
- IC50 (hmGluR5): < 100 µM

Compound: COc1cc(-c2nc3ccccc3o2)ccc1Cn1cccn1 [Example 37, 2-[3-Methoxy-4-(1H-pyrazol-1-ylmethyl)phenyl]-1,3-benzoxazole]
- IC50 (hmGluR5a receptor): < 5 µM
- IC50 (hmGluR5): < 100 µM

Compound: COc1cc(-c2nc3ccccc3o2)ccc1-c1ccc(Cl)nc1 [Example 75, 2-[4-(6-Chloropyridin-3-yl)-3-methoxyphenyl]-1,3-benzoxazole]
- IC50 (hmGluR5a receptor): < 5 µM
- IC50 (hmGluR5): < 100 µM

Compound: OC(c1ccccn1)c1ccc(-c2nc3ccccc3o2)cc1Cl (centres unmarked) [Example 49, [4-(1,3-Benzoxazol-2-yl)-2-chlorophenyl](pyridin-2-yl)methanol]
- IC50 (hmGluR5a receptor): < 5 µM
- IC50 (hmGluR5): < 100 µM

Compound: COc1cc(-c2nc3cc(C)ccc3o2)ccc1-c1ccccn1 [Example 63, 2-(3-Methoxy-4-pyridin-2-ylphenyl)-5-methyl-1,3-benzoxazole]
- IC50 (hmGluR5a receptor): < 5 µM
- IC50 (hmGluR5): < 100 µM

Compound: N#CCc1ccc(-c2nc3ccccc3o2)cc1[N+](=O)[O-] [Example 6, [4-(1,3-Benzoxazol-2-yl)-2-nitrophenyl]acetonitrile]
- IC50 (hmGluR5a receptor): < 5 µM
- IC50 (hmGluR5): < 100 µM

Compound: COc1cc(-c2nc3ccccc3o2)ccc1Cn1ncnn1 [Example 39, 2-[3-Methoxy-4-(2H-tetrazol-2-ylmethyl)phenyl]-1,3-benzoxazole]
- IC50 (hmGluR5a receptor): < 5 µM
- IC50 (hmGluR5): < 100 µM

Compound: COc1cc(-c2nc3cc(Cl)ccc3o2)ccc1-c1ccccn1 [Example 62, 5-Chloro-2-(3-methoxy-4-pyridin-2-ylphenyl)-1,3-benzoxazole hydrochloride]
- IC50 (hmGluR5a receptor): < 5 µM
- IC50 (hmGluR5): < 100 µM

Compound: COC(=O)c1cn(Cc2ccc(-c3nc4ccccc4o3)cc2OC)cn1 [Example 42, Methyl 1-[4-(1,3-benzoxazol-2-yl)-2-methoxybenzyl]-1H-imidazole-4-carboxylate]
- IC50 (hmGluR5a receptor): < 5 µM
- IC50 (hmGluR5): < 100 µM

Compound: COc1cc(-c2nc3ccccc3o2)ccc1-c1ccc(N2CCOCC2)cn1 [Example 77, 2-[3-Methoxy-4-(5-morpholin-4-ylpyridin-2-yl)phenyl]-1,3-benzoxazole]
- IC50 (hmGluR5a receptor): < 5 µM
- IC50 (hmGluR5): < 100 µM

Compound: COc1cc(-c2nc3ccccc3o2)ccc1C1(C#N)CCCCC1 [Example 27, 1-[4-(1,3-Benzoxazol-2-yl)-2-methoxyphenyl]cyclohexanecarbonitrile]
- IC50 (hmGluR5a receptor): < 5 µM
- IC50 (hmGluR5): < 100 µM

Compound: COc1cc(-c2nc3ccccc3o2)ccc1Cc1ccccn1 [Example 46, 2-[3-Methoxy-4-(pyridin-2-ylmethyl)phenyl]-1,3-benzoxazole]
- IC50 (hmGluR5a receptor): < 5 µM
- IC50 (hmGluR5): < 100 µM

Compound: Clc1cc(-c2nc3ccccc3o2)ccc1CCN1CCOCC1 [Example 50, 2-[3-Chloro-4-(2-morpholin-4-ylethyl)phenyl]-1,3-benzoxazole]
- IC50 (hmGluR5a receptor): < 5 µM
- IC50 (hmGluR5): < 100 µM

Compound: N#CCc1ccc(-c2nc3ccccc3o2)cc1N [Example 7, [2-Amino-4-(1,3-benzoxazol-2-yl)phenyl]acetonitrile]
- IC50 (hmGluR5a receptor): < 5 µM
- IC50 (hmGluR5): < 100 µM
